Source: patent US20160175293A1, “PIM KINASE INHIBITOR COMBINATIONS” (priority 2013, published 2016)

Conditions: 500 mg, Day 1

In the case of `C[C@@H]1C[C@H](N)C[C@H](c2ccncc2NC(=O)c2ccc(F)c(-c3c(F)cccc3F)n2)C1` [Compound A, N-(4-((1R,3S,5S)-3-amino-5-methylcyclohexyl)pyridin-3-yl)-6-(2,6-difluorophenyl)-5-fluoropicolinamide], the “time of peak drug concentrations post dose” value is reported as 3 to 8 h.
